Source: PubChem BioAssay AID1159595 (NIAID, 2016)
Here is one part, drawn at random, of 756 deposited reagents. 115 of them (15%) count as active. 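Active calls cover both lowered and raised reporter signal; each score refers to one siRNA rather than a whole gene.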 Entries without a mark were called inactive. The numbers tell different reagents against one gene apart. Reagent sequences are not shown. Not stated in the record: the amount of reagent.

Aim: 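Which toll-like receptor pathway genes macrophages need for Pam3CSK4-induced Tnf promoter activity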 (primary screen)
System: mouse RAW264.7 macrophage reporter cells
Reagent: single siRNA against mouse genes
Time to read-out: assayed 48 to 72 hours after siRNA transfection; ligand applied for 16 hours
Conditions: Pam3CSK4 (TLR2 ligand) for 16 hours before fixation; dose not given
Measurement: 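Nuclear mCherry from a Tnf promoter reporter imaged after 16 h Pam3CSK4, 48–72 h post-transfection; background subtracted, plate median/MAD normalised, robust z-scores averaged over replicates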
Direction: Tnf reporter z-score (replicate mean): higher = stronger Tnf promoter reporter signal than negative control wells
Call rule: 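An siRNA is active when its replicate-mean z-score is -1.5 or lower or 1.5 or higher (activity score at least 50); activity graded at absolute z 1, 1.5, 2 and 2.5; calls apply to single siRNAs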
Meaning of the calls: active = strong change (up or down); inactive = little change

What did the screen give for Rac1 (GeneID 19353) #1?
Tnf reporter z-score (replicate mean): 0.261

What did the screen give for Rac1 (GeneID 19353) #2?
Tnf reporter z-score (replicate mean): 1.45

With Rac1 (GeneID 19353) #3, what was measured?
Tnf reporter z-score (replicate mean): -1.51 (active)

What is on record for Rac1 (GeneID 19353) #4?
Tnf reporter z-score (replicate mean): -0.436

With Rac1 (GeneID 19353) #5, how do the results read?
Tnf reporter z-score (replicate mean): -0.255

What is on record for Rac1 (GeneID 19353) #6?
Tnf reporter z-score (replicate mean): 0.806

What did the screen give for Irf9 (GeneID 16391) #1?
Tnf reporter z-score (replicate mean): 1.31

What did the screen give for Irf9 (GeneID 16391) #2?
Tnf reporter z-score (replicate mean): 0.896

For Irf9 (GeneID 16391) #3, how do the results read?
Tnf reporter z-score (replicate mean): 0.0595

Which result is listed for Irf9 (GeneID 16391) #4?
Tnf reporter z-score (replicate mean): 1.09

For Irf9 (GeneID 16391) #5, what does the deposit list?
Tnf reporter z-score (replicate mean): 1.79 (active)

What did the screen give for Irf9 (GeneID 16391) #6?
Tnf reporter z-score (replicate mean): -1.1

What did the screen give for Tab3 (GeneID 66724) #1?
Tnf reporter z-score (replicate mean): -1.34

How did the screen score Tab3 (GeneID 66724) #2?
Tnf reporter z-score (replicate mean): -0.576

For Tab3 (GeneID 66724) #3, what was measured?
Tnf reporter z-score (replicate mean): -0.819

What is on record for Tab3 (GeneID 66724) #4?
Tnf reporter z-score (replicate mean): 0.482

For Tab3 (GeneID 66724) #5, what was measured?
Tnf reporter z-score (replicate mean): 0.425

What did the screen give for Tab3 (GeneID 66724) #6?
Tnf reporter z-score (replicate mean): -0.245

For Pik3r5 (GeneID 320207) #1, what does the deposit list?
Tnf reporter z-score (replicate mean): 0.217

What did the screen give for Pik3r5 (GeneID 320207) #2?
Tnf reporter z-score (replicate mean): -0.00814

What did the screen give for Pik3r5 (GeneID 320207) #3?
Tnf reporter z-score (replicate mean): -0.5

What is on record for Pik3r5 (GeneID 320207) #4?
Tnf reporter z-score (replicate mean): -0.662

How did the screen score Pik3r5 (GeneID 320207) #5?
Tnf reporter z-score (replicate mean): -1.59 (active)

With Pik3r5 (GeneID 320207) #6, what was measured?
Tnf reporter z-score (replicate mean): -0.792

What is on record for Ticam2 (GeneID 225471) #1?
Tnf reporter z-score (replicate mean): -1.15

For Ticam2 (GeneID 225471) #2, what was measured?
Tnf reporter z-score (replicate mean): -1.15

What did the screen give for Ticam2 (GeneID 225471) #3?
Tnf reporter z-score (replicate mean): -2.39 (active)

Which result is listed for Ticam2 (GeneID 225471) #4?
Tnf reporter z-score (replicate mean): -0.194

What is on record for Ticam2 (GeneID 225471) #5?
Tnf reporter z-score (replicate mean): -0.655

Which result is listed for Ticam2 (GeneID 225471) #6?
Tnf reporter z-score (replicate mean): -2.95 (active)

With Pik3cg (GeneID 30955) #1, what does the deposit list?
Tnf reporter z-score (replicate mean): 1.27

For Pik3cg (GeneID 30955) #2, what does the deposit list?
Tnf reporter z-score (replicate mean): -1.85 (active)

What did the screen give for Pik3cg (GeneID 30955) #3?
Tnf reporter z-score (replicate mean): 0.601

With Pik3cg (GeneID 30955) #4, what was measured?
Tnf reporter z-score (replicate mean): 1.07

For Pik3cg (GeneID 30955) #5, what was measured?
Tnf reporter z-score (replicate mean): -0.973

Which result is listed for Pik3cg (GeneID 30955) #6?
Tnf reporter z-score (replicate mean): -2.23 (active)

How did the screen score Dusp1 (GeneID 19252) #1?
Tnf reporter z-score (replicate mean): -0.407

For Dusp1 (GeneID 19252) #2, what was measured?
Tnf reporter z-score (replicate mean): 0.283

With Dusp1 (GeneID 19252) #3, how do the results read?
Tnf reporter z-score (replicate mean): -0.591

Which result is listed for Dusp1 (GeneID 19252) #4?
Tnf reporter z-score (replicate mean): 1.06

For Dusp1 (GeneID 19252) #5, what was measured?
Tnf reporter z-score (replicate mean): -0.661

How did the screen score Dusp1 (GeneID 19252) #6?
Tnf reporter z-score (replicate mean): -0.268

With Nfkb1 (GeneID 18033) #1, what was measured?
Tnf reporter z-score (replicate mean): -0.19

With Nfkb1 (GeneID 18033) #2, how do the results read?
Tnf reporter z-score (replicate mean): -1.8 (active)

Which result is listed for Nfkb1 (GeneID 18033) #3?
Tnf reporter z-score (replicate mean): -0.222

What is on record for Nfkb1 (GeneID 18033) #4?
Tnf reporter z-score (replicate mean): -1.31

What did the screen give for Nfkb1 (GeneID 18033) #5?
Tnf reporter z-score (replicate mean): -1.67 (active)

For Nfkb1 (GeneID 18033) #6, what does the deposit list?
Tnf reporter z-score (replicate mean): -1.04
